Measurements reported in PubChem BioAssay AID504774 (Drosophila RNAi Screening Center, 2011)
In all, the deposit lists about 23,000 reagents; below is an unselected part of those that have a named target and a result. 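Values are quantile-normalised luminescence on an arbitrary scale; higher means more cells surviving MMS.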 Reagents against one gene are numbered here. Names joined by + are all predicted targets of the reagent.

Assay: 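Knock-downs that shift viability of MMS-exposed cells relative to untreated ones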 (primary screen)
Cell system: Drosophila Kc167 cells
Knock-down reagent: long dsRNA against Drosophila genes, about 0.25 µg dsRNA per well
Duration: about 6 days: 3 days knock-down, then 3 days with or without MMS
Treatment: methyl methanesulphonate 0.004% (w/v) for 3 days after knock-down
Measurement: 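ATP-dependent luminescence as a measure of live cells in MMS-exposed wells, quantile normalised within each plate, with replicate values also given as a mean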
Scale: mean viability with MMS and viability with MMS: higher = more surviving cells after MMS

no.	predicted target	dsRNA no.	mean viability with MMS	viability with MMS, replicate 1	viability with MMS, replicate 2
1	Drsl2 (Drosomycin-like 2)	1	3.67e6	4.18e6	4.09e6
2	CG15403	1	3.68e6	4.11e6	4.18e6
3	ninaG	1	3.54e6	3.93e6	4.11e6
4	fdl (fused lobes)	1	3.60e6	4.07e6	4.10e6
5	CG7453	1	3.56e6	4.15e6	3.91e6
6	MED22 (Mediator complex subunit 22)	1	3.41e6	3.89e6	3.85e6
7	CG15739	1	3.66e6	4.21e6	4.05e6
8	Obp50b + Obp50c	1	3.49e6	3.91e6	4.04e6
9	GPHR (Golgi pH Regulator)	1	3.65e6	4.03e6	4.12e6
10	Torsin	1	1.70e6	4.01e6	3.79e6
11	htl (heartless)	1	3.59e6	4.07e6	4.06e6
12	Golgin245 (Golgin-245)	1	3.93e6	4.41e6	4.46e6
13	Golgin245 (Golgin-245)	2	3.64e6	4.16e6	4.04e6
14	CG5521	1	3.57e6	4.09e6	4.01e6
15	CG43902	1	3.47e6	3.94e6	3.92e6
16	CG8508	1	3.69e6	4.12e6	4.26e6
17	CG30471	1	3.69e6	4.21e6	4.15e6
18	CG3650	1	3.31e6	3.65e6	3.71e6
19	TotZ (Turandot Z)	1	3.49e6	4.00e6	3.91e6
20	RpL10Ab (Ribosomal protein L10Ab)	1	3.01e6	3.52e6	3.46e6
21	Ppat-Dpck	1	3.47e6	4.12e6	3.75e6
22	CG8042	1	3.50e6	3.95e6	3.98e6
23	CG17199	1	3.56e6	4.10e6	3.98e6
24	NELF-B	1	3.38e6	4.05e6	3.81e6
25	CG10839	1	3.50e6	3.98e6	3.98e6
26	CG11723	1	3.38e6	3.76e6	3.78e6
27	qkr58E-2 (quaking related 58E-2)	1	3.38e6	3.75e6	3.83e6
28	Nha1 (Na[+]/H[+] hydrogen antiporter 1)	1	3.43e6	4.02e6	3.66e6
29	pwn (pawn)	1	3.55e6	4.58e6	4.06e6
30	Dyrk2 (Dual-specificity tyrosine phosphorylation-regulated kinase 2)	1	3.47e6	3.92e6	3.92e6
31	CG6726	1	3.52e6	3.95e6	4.02e6
32	CG1902	1	3.73e6	4.16e6	4.29e6
33	scpr-A + scpr-C + scpr-B	1	3.57e6	4.03e6	4.05e6
34	Taf8 (TBP-associated factor 8)	1	3.44e6	3.87e6	3.92e6
35	Eh (Eclosion hormone)	1	3.65e6	4.11e6	4.19e6
36	CG7091	1	3.57e6	4.15e6	3.93e6
37	CG7091	2	3.38e6	3.76e6	3.88e6
38	Snx3 (Sorting nexin 3)	1	3.53e6	4.00e6	4.01e6
39	Cnep1r1 (CTD nuclear envelope phosphatase 1 regulatory subunit 1)	1	3.64e6	4.10e6	4.09e6
40	RpL23A (Ribosomal protein L23A)	1	3.08e6	3.64e6	3.64e6
41	RpL23A (Ribosomal protein L23A)	2	3.74e6	4.26e6	4.12e6
42	CG8036	1	3.52e6	4.01e6	4.00e6
43	Shaw (Shaker cognate w)	1	3.52e6	3.93e6	4.05e6
44	Shaw (Shaker cognate w)	2	3.61e6	3.88e6	4.01e6
45	Shaw (Shaker cognate w)	3	3.62e6	4.01e6	4.20e6
46	Syn1 (Syntrophin-like 1)	1	3.87e6	4.26e6	4.29e6
47	Syn1 (Syntrophin-like 1)	2	3.56e6	4.06e6	4.01e6
48	RpS16 (Ribosomal protein S16)	1	3.12e6	3.55e6	3.51e6
49	Liprin-alpha	1	3.50e6	4.01e6	3.88e6
50	Prp39 (pre-mRNA processing factor 39)	1	3.35e6	3.82e6	3.79e6
51	gom (gomdanji)	1	3.56e6	4.00e6	4.09e6
52	promL (prominin-like)	1	3.71e6	4.32e6	4.11e6
53	Krn (Keren)	1	3.42e6	3.88e6	3.82e6
54	CG9166	1	3.60e6	4.11e6	4.03e6
55	Strn-Mlck (Stretchin-Mlck)	1	3.61e6	4.11e6	4.08e6
56	Strn-Mlck (Stretchin-Mlck)	2	3.49e6	3.95e6	3.98e6
57	Strn-Mlck (Stretchin-Mlck)	3	3.51e6	3.93e6	4.04e6
58	Tbcd (Tubulin-binding cofactor D)	1	3.28e6	3.61e6	3.70e6
59	CG8927	1	3.50e6	3.93e6	4.00e6
60	Nup358 (Nucleoporin 358kD)	1	3.30e6	3.74e6	3.77e6
61	Dap160 (Dynamin associated protein 160)	1	3.68e6	4.42e6	4.07e6
62	Hn (Henna)	1	3.60e6	4.06e6	4.11e6
63	Pp2B-14D (Protein phosphatase 2B at 14D)	1	3.34e6	3.74e6	3.77e6
64	Pp2B-14D (Protein phosphatase 2B at 14D)	2	3.72e6	4.23e6	4.20e6
65	CG3355	1	3.49e6	3.95e6	3.96e6
66	CG13920	1	3.52e6	3.88e6	4.08e6
67	CG15336	1	3.57e6	3.99e6	4.14e6
68	CheB93a (Chemosensory protein B 93a)	1	3.64e6	4.07e6	4.18e6

Already shown: 5 of the entries above.
no.	predicted target	dsRNA no.	mean viability with MMS	viability with MMS, replicate 1	viability with MMS, replicate 2
1	Drsl2 (Drosomycin-like 2)	1	3.67e6	4.18e6	4.09e6
2	CG15403	1	3.68e6	4.11e6	4.18e6
3	ninaG	1	3.54e6	3.93e6	4.11e6
4	fdl (fused lobes)	1	3.60e6	4.07e6	4.10e6
5	CG7453	1	3.56e6	4.15e6	3.91e6
